Data set [1] concerns the target murine p53 (mp53) (mouse) (UniProt P02340). Nature of the data set: EMSA (GA cross-linked SDS-PAGE). The settings on record: 25 mM Tris-HCl pH 7.5, 2 mM DTT, 100 mM NaCl, 1 mM ADP, 5 mM MgCl2 (or 20 mM HEPES pH 7.5, 10 mM ADP), 25 C, then 0.025% glutaraldehyde 20 min, recombinant protein. (In general: A gel shift assay detects complexes by their altered migration in electrophoresis.)

Data set [2] concerns the target human p53 (hp53) (Homo sapiens) (UniProt P04637). In words: EMSA (GA cross-linked SDS-PAGE). The settings on record: 25 mM Tris-HCl pH 7.5, 2 mM DTT, 100 mM NaCl, 1 mM ADP, 5 mM MgCl2 (or 20 mM HEPES pH 7.5, 10 mM ADP), 25 C, then 0.025% glutaraldehyde 20 min; recombinant protein; residues 1-393.
Data set [3] addresses mp53Δ30 (mouse) (UniProt P02340). In words: EMSA (GA cross-linked SDS-PAGE). The settings on record: as full length; 25 mM Tris-HCl pH 7.5, 2 mM DTT, 100 mM NaCl, 1 mM ADP, 5 mM MgCl2 (or 20 mM HEPES pH 7.5, 10 mM ADP), 25 C, then 0.025% glutaraldehyde 20 min; recombinant protein.
Data set [4] has the same target. Nature of the data set: EMSA (GA cross-linked, IR dye). The settings on record: 25 mM Tris-HCl pH 7.5, 2 mM DTT, 100 mM NaCl, 1 mM ADP, 5 mM MgCl2 (or 20 mM HEPES pH 7.5, 10 mM ADP), 25 C, then 0.025% glutaraldehyde 20 min; recombinant protein; label: 5' IR800 both strands.
The target in data set [5] is murine p53 (mp53) (mouse) (UniProt P02340). In words: EMSA (GA cross-linked, IR dye). The settings on record: 25 mM Tris-HCl pH 7.5, 2 mM DTT, 100 mM NaCl, 1 mM ADP, 5 mM MgCl2 (or 20 mM HEPES pH 7.5, 10 mM ADP), 25 C, then 0.025% glutaraldehyde 20 min, recombinant protein, label: 5' IR800 both strands.
Data set [6] deals with human p53 (hp53) (Homo sapiens) (UniProt P04637). In words: EMSA (GA cross-linked, IR dye). The settings on record: 25 mM Tris-HCl pH 7.5, 2 mM DTT, 100 mM NaCl, 1 mM ADP, 5 mM MgCl2 (or 20 mM HEPES pH 7.5, 10 mM ADP), 25 C, then 0.025% glutaraldehyde 20 min, recombinant protein, residues 1-393, label: 5' IR800 both strands.
[7] abbreviates: no stimulation of multiple tetramers over no DNA, letters put together from the description.
Setting [8] is: no stimulation of multiple tetramers.

The comparison behind a weaker result is the experiment's own reference, which may not be listed here. Construct, isoform or probe ends are uncertain for at least one entry. At least one verdict rests on a figure or table, not on a statement of the authors.

“AGACATGCCTAGACAAATTA (double strand) [DNA2]”: in data set [1] (setting [7]), the binding result is reported as “binds more weakly”.

On to “AGACATGCCTATGAATGCCT (double strand) [DNA3]”, for which the binding result in data set [1] (setting [7]) is recorded as “binds more weakly”.

With “AGACATGCCTATGAATTAAT (double strand) [DNA5]”, the binding result in data set [1] (setting [7]) is “binds more weakly”.

For the sequence “AGCATTGGCTTTCTGGCCATCAGAAGACATGCCTGTGGAAGACATGCCTAGCTCTGGCATAGAAGAGGCGCT / AGCGCCTCTTCTATGCCAGAGCTAGGCATGTCTATCCACAGGCATGTCTCTGATGGCCAGAAAGCCAATGCT [DNA35]”, the binding result in data set [1] and in data set [2] was “binds more weakly” in each case.

“AGCATTGGCTTTCTGGCCATCAGAGACATGCCTAGACAAATTAAGCTCTGGCATAGAAGAGGCGCT (double strand) [DNA22]”: the binding result (in the data set with mp53Δ30 (mouse) [3]; in data set [1] (setting [8])) was “binds more weakly” throughout.

On to “AGCATTGGCTTTCTGGCCATCAGAGACATGCCTAGACATGCCTAGCTCTGGCATAGAAGAGGCGCT (double strand) [DNA21]”, for which the binding result with mp53Δ30 (mouse) [3] was “binds”.

As for “AGCATTGGCTTTCTGGCCATCAGAGACATGCCTATGAATGCCTAGCTCTGGCATAGAAGAGGCGCT (double strand) [DNA23]”, the binding result (in the data set with mp53Δ30 (mouse) [3]; in data set [1] (setting [8])) was “binds more weakly” each time.

For “AGCATTGGCTTTCTGGCCATCAGAGACATGCCTATGAATTAATAGACATGCCTAGCTCTGGCATAGAAGAGGCGCT (double strand) [DNA36 (10 bp spacer)]”, the binding result in data set [1] and in data set [2] was “binds more weakly” throughout.

Take “AGCATTGGCTTTCTGGCCATCAGAGACATGCCTATGAATTAATAGCTCTGGCATAGAAGAGGCGCT (double strand) [DNA25]”: the binding result (with mp53Δ30 (mouse) [3]; in data set [1] (setting [8])) was “binds more weakly” in each case.

For the sequence “AGCATTGGCTTTCTGGCCATCAGAGACATGCCTATGCCTTAATATGAAAGACATGCCTAGCTCTGGCATAGAAGAGGCGCT (double strand) [DNA37 (15 bp spacer)]”, the binding result in data set [1] and in data set [2] was “binds more weakly” each time.

“AGCATTGGCTTTCTGGCCATCAGAGACATGCCTGTAGACATGCCTAGCTCTGGCATAGAAGAGGCGCT (double strand) [DNA32 (2 bp spacer)]”: the binding result in data set [1] and in data set [2] was “binds more weakly” each time.

Regarding “AGCATTGGCTTTCTGGCCATCAGAGACATGCCTGTGAGACATGCCTAGCTCTGGCATAGAAGAGGCGCT (double strand) [DNA33 (3 bp spacer)]”, the binding result in data set [1] and in data set [2] was “binds more weakly” in each case.

As to “AGCATTGGCTTTCTGGCCATCAGAGACATGCCTGTGGAGACATGCCTAGCTCTGGCATAGAAGAGGCGCT (double strand) [DNA34 (4 bp spacer)]”, the binding result in data set [1] and in data set [2] was “binds more weakly” each time.

With “AGCATTGGCTTTCTGGCCATCAGAGACATGTCCACAGACTTGTCTAGCTCTGGCATAGAAGAGGCGCT (double strand) [Tigar_SP (2 bp spacer)]”, the binding result in data set [1] and in data set [2] was “binds more weakly” each time.

As to “AGCATTGGCTTTCTGGCCATCAGATGAAAGACATGCCTTTAATAGCTCTGGCATAGAAGAGGCGCT (double strand) [DNA24]”, the binding result (with mp53Δ30 (mouse) [3]; in data set [1] (setting [8])) was “binds more weakly” throughout.

“AGCATTGGCTTTCTGGCCATCAGGAAAATTTCCCAAAATTTTGAGCTCTGGCATAGAAGAGGCGCT (double strand) [DNA20]”: the binding result (with mp53Δ30 (mouse) [3]; in data set [1] (setting [8])) was “binds more weakly” in each case.

Regarding “ATGAAAGACATGCCTTTAAT (double strand) [DNA4]”, the binding result in data set [1] (setting [7]) is listed as “binds more weakly”.

Consider “ATGAAATGAACATGTCTGAGGCATGCTGAATTAA (double strand) [gadd45_1]”, for which, in the data set with mp53Δ30 (mouse) [4], the binding result is reported as “binds”.

In the case of “GAAATGAACATGTCTGTGTAAGGCATGCTGAATTA (double strand) [gadd45_5]”, the binding result (with mp53Δ30 (mouse) [4]; in data set [5]; in data set [6]) was “binds more weakly” throughout.

As to “GAAATTCGATCCTCTATGAATTAATAATTA (double strand) [NSP]”, the binding result in data set [5] (negative control) and in data set [6] (negative control) was “binds more weakly” throughout.

For “TGAAATGAACATGTCTGTAGGCATGCTGAATTAA (double strand) [gadd45_2]”, the binding result (with mp53Δ30 (mouse) [4]; in data set [5]; in data set [6]) was “binds more weakly” throughout.

For “TGAAATGAACATGTCTGTGAGGCATGCTGAATTA (double strand) [gadd45_3]”, the binding result (with mp53Δ30 (mouse) [4]; in data set [5]; in data set [6]) was “binds more weakly” throughout.

For the origin of these results see PMC5291249.
